Results are given in words; binding and its absence hold for the method and conditions named. Binding seen in cells or lysates may run through a third protein. Some binding calls cover weakened binding; strength is not graded here.
Target: S-Tax (HTLV-1) (UniProt P03409)
Experiment: pull-down; S-Tax expressed in 293T by transient transfection, no nuclear extracts added; lysate purified on S-protein agarose beads; SDS-PAGE and immunoblot with anti-DNA-PKcs; S-GFP as control

DNA-dependent Protein Kinase catalytic subunit (DNA-PKcs) (from UniProt P78527 1-4128)
binding: binds

Reference: article PMC2576351
